Experimental data: PubChem BioAssay AID504648 (National Center for Advancing Translational Sciences (NCATS), 2011)
Values joined by “and” are separate entries in the source; they are usually repeats but may differ in a detail not shown here. Equal values may be shown once. The campaign covered roughly 390,000 compounds. About 610 (0.16%) were called active. Inconclusive results, whose numbers are uncertain, are shown with a selection of clear calls. Calls come from the whole dose curve; as a rule, active = well fitted inhibition curve with a large enough effect; inconclusive = small, poorly fitted or top-dose-only effect, or effect the other way, or another doubt; inactive = no such curve, though single readings can be large or run the other way. A potency beside an inconclusive call is a rough fit, not a confirmed value.

Experiment: Nrf2 qHTS screen for inhibitors: counterscreen for cytotoxicity
Details: A549 ARE-Fluc cells, CellTiter-Fluor viability, 18-24 h; series mostly up to 46 µM
Procedure, shortened: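 Cytotoxicity counterscreen: CellTiter-Fluor fluorescence was measured in A549 ARE_Fluc cells after 18-24 h of compound exposure in a concentration series. The subsequent BugLite luminescent read reports ARE-luciferase activity.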
Potency is the fitted concentration of half-maximal effect.

| Compound | Potency |
| --- | --- |
| O=C(N/N=C/c1ccc(O)c2ncccc12)c1cccc(Br)c1 | inconclusive: 20.6 µM [falling, single point] |
| COc1ccc(-c2noc(CCC(=O)NCCCN3CCC(Cc4ccccc4)CC3)n2)cc1 | inconclusive: 32.6 µM [falling, single point] |
| CCOC(=O)C1=CC[C@]2(C)c3c(c4ccccc4n3C)C(=O)C1N2C | inactive |
| CCC(C)NC(=O)CSCc1nc(-c2ccc(C)cc2)oc1C (centres undefined) | inactive |
| CCCCn1c(SCc2ncc(-c3ccccc3)o2)nc2cc(S(N)(=O)=O)ccc21 | inconclusive: 32.6 µM [falling, partial curve, poor fit] |
| CC[n+]1ccccc1/C=C/c1ccc(N(C)C)cc1 | active: 10.3 µM |
| CC(C)N(C(=O)[C@H]1CC(CC(=O)NCC23CC4CC(CC(C4)C2)C3)C(=O)N2CCc3c([nH]c4ccccc34)[C@]12C)C(C)C (some centres undefined) | inconclusive: 20.6 µM [falling, partial curve, poor fit] |
| c1cnc2c(c1)ccc1cccnc12 | inconclusive: 7.31 µM [falling, partial curve] |
| Oc1ccc(Nc2ccc3ccccc3c2)cc1 | inconclusive: 13 µM [falling, partial curve, poor fit] |
| CCOc1ccc(C2=Nn3c(nnc3-c3ccccc3OC)SC2)cc1 | inconclusive: 0.0651 µM [falling, partial curve, poor fit] |
| CN(C)CCNC(=O)C(=O)NCC(c1cccnc1)N1CCN(c2ccccc2)CC1 (centres undefined) | inconclusive: 2.59 µM [falling, full curve] |
| COc1cc2ccc(=O)oc2c(O[C@@H]2O[C@H](CO)[C@@H](O)[C@H](O)[C@H]2O)c1O | inconclusive: 23.1 µM [activator, partial curve] and inconclusive: 20.6 µM [activator, partial curve] |
| COc1ccccc1N=Nc1nc(-c2ccccc2)c(-c2ccccc2)[nH]1 | inconclusive: 20.6 µM [falling, single point] |
| Cc1c(C(=O)Nc2nc(-c3ccccn3)cs2)oc2ccccc12 | inconclusive: 9.2 µM [falling, partial curve, poor fit] |
| CC(C)Oc1ccccc1C1CC(=O)Nc2cc3c(cc21)OCO3 (centres undefined) | inconclusive: 2.06 µM [falling, partial curve] |
| O=C(Nc1cccc(Cl)c1Cl)c1cc(S(=O)(=O)N2CCCc3ccccc32)ccc1F | inconclusive: 10.3 µM [activator, partial curve, poor fit] |
| CCCCNc1c(-c2ccc(Sc3ccc(OC)cc3)cc2)nc2cc(C)ccn12 | inconclusive: 18.4 µM [falling, single point] |
| CCOC(=O)CS(=O)(=O)c1nc(-c2ccccc2)cc(C(F)(F)F)n1 | inconclusive: 29.1 µM [falling, single point] |
| CCn1ccnc1CN(C)Cc1cn(-c2cccc(C)c2)nc1-c1cccc(F)c1 | inconclusive: 18.4 µM [falling, partial curve, poor fit] |
| CC(=O)Nc1ccc2nc(NC(=O)c3ccc([N+](=O)[O-])o3)sc2c1 | inconclusive: 29.1 µM [falling, single point] |

Some of these compounds in order of heavy-atom count, low to high.

| Compound | Potency |
| --- | --- |
| Cc1c(C(=O)Nc2nc(-c3ccccn3)cs2)oc2ccccc12 | inconclusive: 9.2 µM [falling, partial curve, poor fit] |
| COc1ccccc1N=Nc1nc(-c2ccccc2)c(-c2ccccc2)[nH]1 | inconclusive: 20.6 µM [falling, single point] |
| CCCCn1c(SCc2ncc(-c3ccccc3)o2)nc2cc(S(N)(=O)=O)ccc21 | inconclusive: 32.6 µM [falling, partial curve, poor fit] |

(continued)

| Compound | Potency |
| --- | --- |
| COc1ccc(OC)c(NC(=O)c2c(NCc3ccc(N(C)C)cc3)sc3c2CCCC3)c1 | inconclusive: 20.6 µM [falling, single point] |
| COc1ccc(NC(=O)c2oc3ccccc3c2NC(=O)C23CC4CC(CC(C4)C2)C3)cc1 | inactive |
| CC(C)(O)/C=C/C(=O)[C@](C)(O)C1[C@H](O)C[C@@]2(C)C3CC=C4C(C=C(O[C@@H]5O[C@H](CO)[C@@H](O)[C@H](O)[C@H]5O)C(=O)C4(C)C)[C@]3(C)C(=O)C[C@]12C (some centres undefined) | inactive |
| O=C(NCCCc1ccccc1)c1nn(-c2ccccc2)nc1CO | inactive |
| Cc1c(Cl)cccc1NC(=O)c1ccc(OCC(=O)NCc2ccccc2)cc1 | inconclusive: 16.4 µM [falling, partial curve, poor fit] |
| COC(=O)c1ccccc1NC(=S)N(Cc1ccc2c(c1)OCO2)Cc1cc2cccc(C)c2[nH]c1=O | inactive |
| Cc1ccc(S(=O)(=O)Cn2nnnc2C(C(C)C)N2CCSCC2)cc1 (centres undefined) | inconclusive: 18.4 µM [activator, partial curve, poor fit] |
| CC(=O)c1cccc(N=c2scc(-c3ccc(S(=O)(=O)N4CCOCC4)cc3)n2CCO)c1 | inactive |
| CCOC(=O)Cc1csc(NC(=O)c2sc3nc4c(C)cc(C)cc4cc3c2N)n1 | inconclusive: 2.59 µM [activator, partial curve] |
| O=C(O)CN1C(=O)/C(=C\c2cc(Br)ccc2OCc2ccc(F)cc2)SC1=S | inconclusive: 16.4 µM [falling, partial curve, poor fit] |
| COc1cccc(-c2csc3nnc(SCC(=O)NCc4cccs4)n23)c1 | inconclusive: 14.6 µM [falling, partial curve, poor fit] |
| Cc1ccc(Cl)cc1NS(=O)(=O)c1ccc2oc(=O)ccc2c1 | inactive |
| CC(C)(C)CC(C)(C)N=C1Nc2cc(Cl)c(Cl)cc2NC12C[C@H]1CCC(=O)N3CC[C@@H](C2)[C@@H]13 (some centres undefined) | inconclusive: 32.6 µM [falling, partial curve, poor fit] |
| CC(C)Sc1nc2sc3c(c2c(=O)n1-c1ccccc1)CCCC3 | inactive |
| O=C(CN(Cc1ccc(Cl)c(Cl)c1)S(=O)(=O)c1ccccc1)N/N=C\c1ccc2c(c1)OCO2 | inconclusive: 20.6 µM [falling, partial curve, poor fit] |
| O=C(Nc1ccc(-c2nc3ncccc3o2)cc1)c1ccc(Br)o1 | inactive |
| COc1ccc(-c2nsc(NC(=O)c3oc4ccccc4c3C)n2)cc1 | inactive |
| COc1ccc2cc3cc(C(=O)NCCN4CCN(c5ccccc5F)CC4)oc3nc2c1 | inconclusive: 29.1 µM [falling, single point] |
| Cc1ccc(-c2nn(-c3ccccc3)cc2C(=O)N2CCN(c3ccccn3)CC2)cc1 | inconclusive: 20.6 µM [falling, single point] |
